From the supplement of paper PMC3334620
The full ranking holds about 33,000 sequences; the median of “E-score (-0.5 to 0.5)” is about -0.0014, and the highest 2% start at about 0.25. The list shows a part of the results.

Target: T1, Cad1 (UniProt P24813)
T1 sequence: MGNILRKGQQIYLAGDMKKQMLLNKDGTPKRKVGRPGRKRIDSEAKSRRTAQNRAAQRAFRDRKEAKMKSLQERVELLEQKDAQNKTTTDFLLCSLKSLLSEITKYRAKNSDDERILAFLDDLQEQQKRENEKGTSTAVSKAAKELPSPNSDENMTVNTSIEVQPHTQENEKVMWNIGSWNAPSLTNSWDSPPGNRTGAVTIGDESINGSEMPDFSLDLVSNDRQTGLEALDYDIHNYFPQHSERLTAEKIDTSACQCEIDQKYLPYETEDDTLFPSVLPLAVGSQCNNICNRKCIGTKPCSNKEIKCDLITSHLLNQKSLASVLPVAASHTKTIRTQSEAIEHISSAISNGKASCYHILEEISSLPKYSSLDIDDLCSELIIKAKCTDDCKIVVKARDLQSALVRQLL
Assay: PBM E-score (8-mer binding enrichment) (E-score (-0.5 to 0.5)); higher = stronger / more preferred TF binding
Details: protein concentration: 100 nM; construct: GST-full length
Method in brief: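 Each ungapped eight-base word and its reverse complement, pooled, received an E-score from the Universal PBM Analysis Suite. Underlying scans, normalised with masliner, recorded fluorescent anti-GST bound to GST-tagged yeast transcription factors. These were applied at about 100-200 nM to universal all-10-mer Agilent arrays double-stranded by primer extension.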

Row | Sequence | PBM E-score
1 | AAAGGTGA | -0.0406
2 | ACGTTTTG | -0.0551
3 | CGCGGTTA | -0.00191
4 | GGCGAGCA | -0.00035
5 | CCGGTGAG | -0.145
6 | GTCTAAAA | -0.144
7 | GCTAATAA | 0.00494
8 | AGAAAAGG | -0.131
9 | GATGATAC | -0.0174
10 | TACATACA | 0.0815
11 | ATAAACGG | 0.223
12 | AATCGTGA | 0.0886
13 | CCTATCCG | -0.0612
14 | CGGCGACG | 0.089
15 | CGCGTTAA | 0.0858
16 | GCCCGCGC | 0.244
17 | AATCGTCA | 0.135
18 | CAGGCAGG | -0.102
19 | ACCGTAGG | -0.311
20 | CACCCCTG | -0.288
21 | CAACCATA | 0.0087
22 | CTCAGTCC | -0.0538
23 | CGCGTGCA | 0.0727
24 | CGAATCAA | 0.224
25 | CAGCTATA | -0.0488

Row | Sequence | PBM E-score
26 | GCGTAAGC | 0.215
27 | CCGTGTAG | -0.0745
28 | ATGCATAG | -0.0645
29 | CGCTAAGA | 0.068
30 | GCCTCTAC | -0.289
31 | GAAGCGCA | 0.0481
32 | AGCCCTTA | -0.11
33 | GTCGTAAC | -0.107
34 | ACCGATAA | 0.196
35 | AGGGTCAA | 0.0208
36 | CCAGCAGC | -0.103
37 | GGTAATAC | 0.111
38 | ATAAGTTA | 0.156
39 | AGCTCTAC | -0.145
40 | CTGTAGTC | -0.0916
41 | ACTAGCAG | -0.038
42 | CCGAGAAA | 0.193
43 | ATGCTGCC | 0.0614
44 | CCTTGCCA | -0.117
45 | ATACTAAG | 0.105
46 | GAATTCCC | -0.0879
47 | AATTGCTC | -0.0256
48 | ACTGATCA | 0.0707
49 | ATGACCGC | -0.15
50 | CTTTCCGA | 0.0276

Row | Sequence | PBM E-score
51 | CGCGAACA | 0.186
52 | CATCGCAG | -0.0654
53 | GCCGTCCA | 0.163
54 | AGACGCTG | -0.11
55 | GGGTGTTA | 0.0307
56 | CCGCTTTA | 0.0678
57 | GCCCGAAA | 0.0495
58 | ATAGATTA | 0.18
59 | AACGACAA | 0.134
60 | AAATGATG | 0.0607
61 | GACGGAGC | -0.197
62 | ACAATCAA | 0.158
63 | CCCTAGCG | -0.265
64 | AATGCTCA | -0.0337
65 | CCGTTATC | 0.00035
66 | AGCGAAGG | -0.0765
67 | CTCCCTAA | -0.0842
68 | CACATTCG | 0.0042
69 | ATTACCGA | 0.102
70 | AGTCCACG | -0.113
71 | ATCGGTGA | 0.0553
72 | AGATTATC | 0.00491
73 | CGCCCCTC | -0.332
74 | CACGGGTC | -0.122
75 | GGATTCCA | 0.112

Row | Sequence | PBM E-score
76 | GACGGTAC | 0.0123
77 | ATCACATA | 0.174
78 | CACCATGA | -0.0956
79 | CAGATCTA | 0.00832
80 | GATGAGCC | -0.0972
81 | ATGATAAC | 0.0889
82 | GGCTTCCA | -0.241
83 | ACAACGTC | -0.0572
84 | ATGCAACG | 0.0514
85 | AGGTATGA | -0.0176
86 | CCAGAACG | 0.0801
87 | ACCGGTCA | 0.0275
88 | ATCGCCCG | -0.0312
89 | AGCAGGCT | -0.144
90 | AATTGCCC | 0.097
91 | CTGACTTA | 0.201
92 | ACTTCTCT | -0.179
93 | ACTGTCAA | -0.0813
94 | CTTGAGTC | -0.118
95 | ATAGAGCG | -0.162
96 | ATGGTGCA | -0.0972
97 | CTTACATC | -0.00465
98 | GAGACGGA | 0.0596
99 | TACCGTGA | -0.118
100 | CAGCTGTA | -0.0293

Row | Sequence | PBM E-score
101 | CACCGGTA | -0.13
102 | TATTCGAA | 0.112
103 | CTAGTCCC | -0.194
104 | AATGTACT | 0.111
105 | TGACGGCA | -0.0914
106 | CAACAGAC | 0.125
107 | ACGGCTCG | 0.0865
108 | GTCAACAC | 0.169
109 | CAGAAAAC | 0.0678
110 | GGTACACC | -0.163
111 | AATAGAAT | 0.00914
112 | ATCACTAG | -0.0684
113 | CACTGGTA | -0.0465
114 | CCATCGTC | -0.0595
115 | GTACGCAC | -0.0801
116 | GAGTCCAA | -0.0415
117 | AAGAACCA | -0.00253
118 | AATACGCT | 0.141
119 | AATTCAGT | -0.051
120 | CAGGGAAC | -0.0723
121 | TGCGACCA | -0.0148
122 | GGCTCCGA | -0.0167
123 | AAATGTGC | 0.201
124 | TCTCGGAA | 0.103
125 | AATTAAGG | 0.0253

Another view of part of the listing above:
Row	Sequence	PBM E-score
102	TATTCGAA	0.112
105	TGACGGCA	-0.0914
110	GGTACACC	-0.163
120	CAGGGAAC	-0.0723
125	AATTAAGG	0.0253

Next part:

Row | Sequence | PBM E-score
126 | CATTCGAG | 0.0511
127 | CGTGCAGA | 0.0434
128 | CCGTGTGA | -0.0277
129 | AGCCAAAG | -0.123
130 | ATTCGGAC | 0.182
131 | GGCACCAA | 0.129
132 | GATGTAGA | -0.158
133 | GGTCTACA | -0.0752
134 | AAAGCTCG | -0.00679
135 | GTAAATGA | 0.0571
136 | ACTAATAT | 0.302
137 | AACGCAAC | 0.0831
138 | ATCGGTCG | 0.12
139 | CGGGACAA | 0.0675
140 | AATTACAT | 0.354
141 | GGTCACTA | 0.023
142 | ATTTGAGG | -0.206
143 | GTTGGTGA | 0.146
144 | ACATGAAA | -0.0596
145 | CATATGGC | 0.0661
146 | CAGATGGC | 0.0196
147 | ATAGCTAG | -0.106
148 | CGAGAGGA | -0.0632
149 | GTCAAGGA | -0.0151
150 | GCTAACCC | -0.0945

Given as labelled records: part of the list above
CGGGACAA
  PBM E-score = 0.0675
AATTACAT
  PBM E-score = 0.354
GGTCACTA
  PBM E-score = 0.023
ATTTGAGG
  PBM E-score = -0.206

(listing goes on)

Row | Sequence | PBM E-score
151 | CCCAGCAA | -0.0856
152 | AGTTGACC | 0.0224
153 | CCAGAGAC | -0.012
154 | GATTTCTA | 0.123
155 | CATTGCAG | 0.0842
156 | CGACGGTA | 0.217
157 | AATGCGCT | 0.0389
158 | ACGAATGG | 0.0157
159 | CAACGCTA | 0.00025
160 | CTTTGGGC | -0.224
161 | CGCAACCA | 0.0618
162 | ATTCGGTA | 0.185
163 | GACTCATC | -0.00764
164 | CAGGTGCC | -0.0801
165 | ACGCACGG | 0.0876
166 | ACTGAGCA | -0.057
167 | AAAGAAGT | 0.171
168 | CAACTTGA | 0.223
169 | ATGGGGGA | -0.385
170 | GTCGATAA | -0.0981
171 | AGATGGAC | 0.0292
172 | TAGGTGCA | -0.112
